The results in this text go back to paper PMC9157258.

The target of experiment [1] is T1, Malignant T-cell-amplified sequence 1 (mouse (endogenous in fetal and adult HSPCs)) (UniProt Q9DB27).
T1 sequence: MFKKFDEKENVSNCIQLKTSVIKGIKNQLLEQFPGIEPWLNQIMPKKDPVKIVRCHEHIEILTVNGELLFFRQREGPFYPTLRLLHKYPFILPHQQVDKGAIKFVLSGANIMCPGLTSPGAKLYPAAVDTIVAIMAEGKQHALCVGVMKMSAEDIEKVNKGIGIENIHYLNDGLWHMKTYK
The experiment in a line: proximity ligation; Duolink in situ PLA with anti-DENR and anti-MCTS1 antibodies in methanol/acetone-fixed adult bone marrow HSPCs.

For experiment [2], the target named is T1, Malignant T-cell-amplified sequence 1 (mouse (endogenous in fetal and adult HSPCs)). Kind of experiment: proximity ligation; Duolink in situ PLA with anti-DENR and anti-MCTS1 antibodies in methanol/acetone-fixed fetal liver HSPCs.

No constants are given. Whether binding was seen depends on the method and setting. Binding seen in cells or lysates may run through a third protein. Some entries that bind do so weakly or less than the wild type.

B1: Density regulated protein (protein, UniProt Q9CQJ6 1-198)
chain: MATDISESSGADCKGDTKNSAKLDADYPLRVLYCGVCSLPTEYCEYMPDVAKCRQWLEKNFPNEFAKLTVENSPKQETGITEGQGPVGEEEEKKKQKRGGRGQIKQKKKTVPQKVTIAKIPRAKKKYVTRVCGLATFEIDLKEAQRFFAQKFSCGASVTGEDEIIIQGDFTDDIIDVIQEKWPEVDDDSIEDLGEVKK
Turning to B1, the values for the binding entry in experiment [1] and in experiment [2] were “no binding (condition: in adult bone marrow HSPCs)” and “binds”, respectively.
